# Laboratory results: PubChem BioAssay AID1259254 (NCATS, 2017)
# Assay: 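Gene knock-downs that lead to re-replication, shown by excess G2 DNA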 (primary screen)
# Cells: human HCT116 colorectal cancer cells
# Knock-down reagent: single siRNA against human genes
# Duration: 3 days
# Detection: 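Imaged Hoechst DNA stain sorts each cell into a cycle phase by DNA amount; per plate, G2 fraction set to 0% for non-targeting and 100% for GMNN siRNA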
# Reading the numbers: G2 robust z-score and G2 cells, % of GMNN control: higher = more G2 cells, more excess DNA replication; raw share of cells in G2: higher = larger share of cells with G2 DNA content
# Hit rule: 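An siRNA counts as active if its G2 robust z-score lies at least 5 MADs above the screen median; here such calls match roughly 38% of GMNN control or more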
# Shown is one part, drawn at random, of about 59,000 reagents tested. In the full data, about 1,550 (2.6%) are marked active. 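G2 share is only a proxy for re-replication; each gene was hit by three separate siRNAs, and active genes were retested.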 Raw values are not corrected between plates. Reagents against one gene are numbered here. Not stated in the record: the amount of reagent.
gene,reagent,G2 robust z-score,"G2 cells, % of GMNN control",raw share of cells in G2 (%),call
SGPP1 (sphingosine-1-phosphate phosphatase 1),1,-0.822,-2.82,3.88,inactive
SGPP1 (sphingosine-1-phosphate phosphatase 1),2,-0.639,-1.53,3.84,inactive
SGPP1 (sphingosine-1-phosphate phosphatase 1),3,0.271,4.88,4.96,inactive
CD99L2 (CD99 molecule like 2),1,-0.84,-2.94,3.13,inactive
CD99L2 (CD99 molecule like 2),2,-0.99,-4,2.27,inactive
CD99L2 (CD99 molecule like 2),3,0.16,4.1,3.65,inactive
WDR81 (WD repeat domain 81),1,-0.408,0.0952,4.13,inactive
WDR81 (WD repeat domain 81),2,-0.301,0.851,3.58,inactive
WDR81 (WD repeat domain 81),3,1.04,10.3,4.82,inactive
C2orf92 (chromosome 2 open reading frame 92),1,-0.149,1.92,4.27,inactive
C2orf92 (chromosome 2 open reading frame 92),2,4.74,36.3,15.7,inactive
C2orf92 (chromosome 2 open reading frame 92),3,0.109,3.73,5.01,inactive
GPT (glutamic--pyruvic transaminase),1,-1.08,-4.63,3.5,inactive
GPT (glutamic--pyruvic transaminase),2,-0.831,-2.88,2.63,inactive
GPT (glutamic--pyruvic transaminase),3,1.95,16.7,11.3,inactive

The list goes on (2 carried over from the part before).
gene,reagent,G2 robust z-score,"G2 cells, % of GMNN control",raw share of cells in G2 (%),call
GPT (glutamic--pyruvic transaminase),2,-0.831,-2.88,2.63,inactive
GPT (glutamic--pyruvic transaminase),3,1.95,16.7,11.3,inactive
TAAR5 (trace amine associated receptor 5),1,-0.537,-0.811,5.55,inactive
TAAR5 (trace amine associated receptor 5),2,-0.543,-0.852,4.22,inactive
TAAR5 (trace amine associated receptor 5),3,1.32,12.3,7.03,inactive
RANBP1P1 (RANBP1 pseudogene 1),1,1.78,15.5,9.07,inactive
RANBP1P1 (RANBP1 pseudogene 1),2,0.789,8.52,7.11,inactive
RANBP1P1 (RANBP1 pseudogene 1),3,2.35,19.5,13,inactive
CPNE2 (copine 2),1,0.337,5.34,5.51,inactive
CPNE2 (copine 2),2,-0.333,0.623,3.34,inactive
CPNE2 (copine 2),3,5.08,38.7,15.5,active
LAG3 (lymphocyte activating 3),1,-0.294,0.898,5.35,inactive
LAG3 (lymphocyte activating 3),2,0.247,4.71,6.08,inactive
LAG3 (lymphocyte activating 3),3,-0.775,-2.49,2.46,inactive
PDE4A (phosphodiesterase 4A),1,0.509,6.55,6.28,inactive
PDE4A (phosphodiesterase 4A),2,-0.184,1.67,5.34,inactive
PDE4A (phosphodiesterase 4A),3,2.31,19.2,9.29,inactive
